We go through 4 compounds from patent publication EP4624471A1, “PKMYT1 INHIBITOR, PREPARATION METHOD THEREFOR, AND PHARMACEUTICAL COMPOSITION AND USE THEREOF” (Shanghai Qilu Pharmaceutical Research and Development …, priority 2022, dated 2024).

By UniProt entry, the sequences of proteins in these tests, tags left out.
UniProt Q99640, whole entry: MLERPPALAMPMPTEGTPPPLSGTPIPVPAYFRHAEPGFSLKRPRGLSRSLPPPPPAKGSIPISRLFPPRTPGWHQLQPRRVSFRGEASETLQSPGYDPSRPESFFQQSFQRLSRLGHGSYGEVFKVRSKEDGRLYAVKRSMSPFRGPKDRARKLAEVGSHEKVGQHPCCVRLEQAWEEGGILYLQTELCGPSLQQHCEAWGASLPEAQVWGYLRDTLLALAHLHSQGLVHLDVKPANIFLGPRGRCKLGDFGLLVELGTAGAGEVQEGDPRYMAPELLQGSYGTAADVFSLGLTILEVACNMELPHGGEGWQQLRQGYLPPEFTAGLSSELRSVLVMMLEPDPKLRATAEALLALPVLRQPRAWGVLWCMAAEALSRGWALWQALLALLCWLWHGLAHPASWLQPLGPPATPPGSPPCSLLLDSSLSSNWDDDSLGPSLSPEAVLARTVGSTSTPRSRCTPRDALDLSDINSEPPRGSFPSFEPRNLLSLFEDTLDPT

One test has as its target PKMYT1 enzyme (Homo sapiens, UniProt Q99640). Nature of the test: PKMYT1 enzyme inhibition activity, ADP-GLO method. The format is biochemical. The following applies: read-out: ADP-GLO IC50; PKMYT1 enzyme 10 nM, ATP 5 µM, 37°C 90 minutes.
The next test has as its system HCC1569 cells. Nature of the test: Cytostatic activity, CTG assay (HCC1569). Conditions: 5 days.

Structures were worked out from names or drawings and are uncertain.

A word on the IC50: it is the concentration at which inhibition is half-maximal. In the case of `Cc1ccc(O)c(C)c1-n1c(N)c(C(N)=O)c2c3cccnc3c(C)cc21` [209], at PKMYT1 enzyme, the IC50 came to 28.7 nM. In the case of `Cc1cc2c(C(N)=O)c(N)n(-c3c(C)c(F)cc(O)c3Cl)c2nc1C` [Example 114.1], the IC50 at PKMYT1 enzyme was 4.21 nM; in the test on HCC1569 cells, 69 nM.

In the case of `Cc1cc2c(C(N)=O)c(N)n(-c3c(C)c(F)cc(O)c3Cl)c2nc1C` [Example 114], the IC50 on PKMYT1 enzyme is 6.63 nM; in the test on HCC1569 cells, 54 nM. For `Cc1ccc(O)c(C)c1-n1c(N)c(C(N)=O)c2c3cccnc3c(C)cc21` [210], on PKMYT1 enzyme, the IC50 came out at 9.71 nM.
